Experimental data: PubChem BioAssay AID504444 (National Center for Advancing Translational Sciences (NCATS), 2011)
Out of some 360,000 compounds screened, about 7,500 (2.1%) were called active. This list was built around the results that the source calls inconclusive (neither active nor inactive); the mix of calls is not that of the screen. Calls follow the shape of the dose curve; as a rule, active = well fitted inhibition curve with a large enough effect; inconclusive = small, poorly fitted or top-dose-only effect, or effect the other way; inactive = flat fitted curve, though single readings scatter. Potencies beside an inconclusive call are fits to weak or partial responses and may not hold up.

Test: Nrf2 qHTS screen for inhibitors; also: nearly all actives have a fitted effect of over 60% in size
Details: A549 ARE-Fluc reporter, luciferase luminescence, 18-24 h; activity change, negative = inhibition: at 46 µM (top of the series)
How it was run: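 Cells were seeded and rested 2 h, then exposed to compounds for 18-24 h. CellTiter-Fluor was read first as a viability measure. BugLite was added 15 min before the final luminescent read of ARE-luciferase activity in A549 cells.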
% is scaled to controls: 0 for no effect and ±100 for the full control effect; potency is read from the fitted curve at half-maximal effect.

Row | SMILES | Potency | activity change, negative = inhibition
1 | O=C(Cn1ccc2cc(S(=O)(=O)N3CCCCC3)ccc21)NCCc1ccc(Cl)cc1 | inconclusive: 29.1 µM [falling, single point] | 
2 | COc1ccccc1C(C)NC(=O)CCC(=O)N1CCN(S(=O)(=O)c2ccc(Cl)cc2)CC1 (stereo not drawn) | inconclusive: 25.9 µM [falling, single point] | 
3 | COc1ccccc1-c1nnc(SCC(=O)NC2CCCCC2)o1 | inconclusive: 10.3 µM [falling, partial curve, poor fit] | 
4 | O=C(CN1CCN(c2ccccc2O)CC1)NC(=O)NC1CCCC1 | inconclusive: 14.6 µM [falling, partial curve, poor fit] | 
5 | O=C(O)Cc1sc(Nc2ccccc2Cl)nc1-c1ccccc1 | inconclusive: 10.3 µM [activator, partial curve, poor fit] | 
6 | COC(=O)CN(C(=S)Nc1ccc(Cl)cc1)C1CC(=O)N(c2ccc(OC)cc2)C1=O (stereo not drawn) |  | inactive: -14.1%
7 | Cc1ccc(-c2ccc(=O)n(CC(=O)N3CCN(c4cccc(C)c4)C(C)C3)n2)cc1 (stereo not drawn) |  | inactive: -19.8%
8 | CN(C)/C=N/c1c(C#N)cnn1-c1nc2ccccc2s1 | inconclusive: 9.2 µM [activator, partial curve] | 
9 | CC(NC(c1ccccc1)c1ccccc1)C(=O)N1CCCc2ccccc21 (stereo not drawn) |  | inactive: -6.93%
10 | COc1ccc(NC(=O)CN(C)C(=O)c2ccccc2OCC(=O)Nc2cccc(C(F)(F)F)c2)cc1 |  | inactive: -7.74%
11 | Cc1nn2cc(-c3cccc(Cl)c3)cnc2c1Br | inconclusive: 23.1 µM [activator, single point] | 
12 | COc1ccc(CCC(=O)NCCOc2ccccc2Cl)cc1 | inconclusive: 25.9 µM [activator, single point] | 
13 | C[C@@H]1CN([C@H](C)CO)C(=O)c2cc(NC(=O)Nc3ccc(C(F)(F)F)cc3)ccc2O[C@H]1CN(C)Cc1ccc(Cl)c(Cl)c1 | inconclusive: 29.1 µM [falling, single point] | 
14 | CCOC(=O)C1=C(CNCCc2ccc(Cl)cc2)NC(=O)NC1c1cccc([N+](=O)[O-])c1 (stereo not drawn) | inconclusive: 9.2 µM [falling, partial curve, poor fit] | 
15 | C=CCc1c(C)nc2cc(-c3ccccc3)[nH]n2c1=O | inconclusive: 11.6 µM [activator, partial curve] | 
16 | CC(=O)c1ccc(Cc2cnc(N)s2)cc1 | inconclusive: 20.6 µM [activator, single point] | 
17 | COC(=O)C1C=CC(OC2OC(COC(C)=O)C(OC(C)=O)C(OC(C)=O)C2OC(C)=O)n2c(=O)n(-c3ccccc3)c(=O)n21 (stereo not drawn) | inconclusive: 20.6 µM [falling, single point] | 
18 | COc1ccc(NC(=O)CSc2nc3cc(OC)c(OC)cc3c3nc(-c4ccccc4)nn23)cc1Cl |  | inactive: 27.1%
19 | Cc1cc(C)n(CC(O)CN2c3ccccc3Sc3ccccc32)n1 (stereo not drawn) | inconclusive: 32.6 µM [falling, single point] | 
20 | O=S(=O)(Nc1cccnc1)c1cccc(C(F)(F)F)c1 |  | inactive: 6.53%
21 | Cc1cc(C)n(C(=O)CCCn2nc(C)c([N+](=O)[O-])c2C)n1 | inconclusive: 18.4 µM [falling, partial curve, poor fit] | 

Record cards, from the list above:
`COc1ccc(NC(=O)CSc2nc3cc(OC)c(OC)cc3c3nc(-c4ccccc4)nn23)cc1Cl` as listed: activity change, negative = inhibition: inactive: 27.1%
`COC(=O)C1C=CC(OC2OC(COC(C)=O)C(OC(C)=O)C(OC(C)=O)C2OC(C)=O)n2c(=O)n(-c3ccccc3)c(=O)n21` (stereo not drawn) as listed: Potency: inconclusive: 20.6 µM [falling, single point]

The listing continues.

Row | SMILES | Potency | activity change, negative = inhibition
22 | CCOC(=O)c1ccc(NC(=O)CCc2nc(-c3ccccc3Cl)no2)cc1 | active: 16.4 µM | 
23 | CCCCCCCc1c(O)nc(SCCN2CCOCC2)[nH]c1=O | inconclusive: 0.0366 µM [falling, full curve, poor fit] | 
24 | C/C(=N/NC(=O)CN1CCN(Cc2ccccc2Cl)CC1)c1cccnc1 | inconclusive: 20.6 µM [falling, partial curve, poor fit] | 
25 | Cn1c(C(=O)NC2CCCCC2)cc2c(=O)n(C)c3ccccc3c21 | inconclusive: 32.6 µM [falling, single point] | 
26 | O=C(Nc1ccc2c(c1)nc1n2CCCCC1)c1cc(S(=O)(=O)N2CCOCC2)ccc1Cl | inconclusive: 25.9 µM [falling, partial curve, poor fit] | 
27 | CC1=NOC(=O)/C1=C\c1ccc(-c2ccccc2Br)o1 |  | inactive: 9.99%
28 | COc1ccc(C2(c3ccc(OC(C)=O)cc3OC(C)=O)CC(c3ccccc3)NC(=S)N2)cc1 (stereo not drawn) | active: 20.6 µM | 
29 | O=C(CN1c2cccc3cccc(c23)S1(=O)=O)NCc1ccc(Cl)cc1 | inconclusive: 29.1 µM [falling, single point] | 
30 | O=C(CN1CCN(Cc2ccccc2)CC1)N=Nc1c(O)[nH]c2ccccc12 | inconclusive: 0.58 µM [falling, full curve] | 
31 | CCCCCCCOC(=O)c1nc(Cl)c(Cl)c(N)c1Cl | inconclusive: 29.1 µM [falling, single point] | 
32 | O=C(NCC(c1ccco1)N1CCCC1)c1ccc(S(=O)(=O)Nc2ccccc2Cl)cc1 (stereo not drawn) | inconclusive: 18.4 µM [falling, partial curve, poor fit] | 
33 | CCN1C(=O)/C(=C/c2ccc(C)s2)SC1=Nc1ccc(OC)cc1 | inconclusive: 32.6 µM [falling, single point] | 
34 | COc1ccc(NC(=S)N(CCC(C)C)C2CCN(C(C)C)CC2)cc1Cl | inconclusive: 4.11 µM [activator, single point] | 
35 | Cc1cccc(C)c1NC(=O)CSc1nc(C)c(CC(=O)c2ccc(Br)cc2)c(C)c1C#N | inconclusive: 11.6 µM [falling, single point] | 
36 | O=C(N/N=C/c1cccnc1)c1cccc(NC(=O)c2cccc(Br)c2)c1 | inconclusive: 32.6 µM [falling, single point] | 
37 | Cc1ccccc1N/C(SCc1ccc(Cl)cc1)=C(/C#N)C(=O)NCc1ccco1 | inconclusive: 29.1 µM [falling, single point] | 
38 | CCOc1cc(NC(=O)c2ccco2)c(OCC)cc1NC(=O)COc1ccccc1C | inconclusive: 2.59 µM [falling, full curve, poor fit] | 
39 | CC(=O)Nc1cccc(Oc2ncnc3scc(-c4ccc(C)cc4)c23)c1 | active: 18.4 µM | 
40 | Cc1cccc(N/C=C(\[N+](=O)[O-])S(=O)(=O)c2ccccc2)c1C | inconclusive: 13 µM [activator, partial curve, poor fit] | 
41 | CN1CCC(=C2c3ccccc3C(O)c3ccccc32)CC1 (stereo not drawn) | inconclusive: 2.59 µM [activator, full curve, poor fit] | 
42 | CCOC(=O)C(=CNc1ccc(C(F)(F)F)cc1Cl)C(=O)OCC | inconclusive: 32.6 µM [falling, partial curve, poor fit] | 

Row | SMILES | Potency | activity change, negative = inhibition
43 | CCOC(=O)c1c(NC(=O)COC(=O)c2ccccc2NC)sc(C(=O)N(C)C)c1C | inconclusive: 23.1 µM [falling, partial curve, poor fit] | 
44 | COc1ccc(C(=O)NCCCn2cccn2)cc1OC1CCN(C(C)=O)CC1 | inconclusive: 29.1 µM [falling, single point] | 
45 | CC(C)c1ccc(NC(=O)CSc2n[nH]c(=O)n2Cc2ccco2)cc1 | active: 10.3 µM | 
46 | COc1ccc(OC2C(=O)N(c3ccc(C)c(C)c3)C2c2ccc(OC)c(OC)c2)cc1 (stereo not drawn) | inconclusive: 2.06 µM [activator, partial curve, poor fit] | 
47 | C=CCn1c(NS(=O)(=O)c2ccccc2)c(S(=O)(=O)c2ccc(C)cc2)c2nc3ccccc3nc21 | inconclusive: 23.1 µM [falling, partial curve] | 
48 | O=C(N/N=C/c1coc2ccccc2c1=O)c1cc(Br)c(O)c(Br)c1 | inconclusive: 4.61 µM [falling, partial curve] | 
49 | CCC(Sc1ccc(Cl)cc1)C(=O)Nc1nnc(-c2cccc([N+](=O)[O-])c2)s1 (stereo not drawn) | inconclusive: 6.51 µM [falling, single point] | 
50 | COc1cc(C(=O)Nc2ccc(S(=O)(=O)N(C)c3ccccc3)cc2)cc(OC)c1OC | inconclusive: 13 µM [falling, partial curve, poor fit] | 
51 | CN(C)/C=C(/C#N)C(=O)c1cccc(Oc2ccc(C(C)(C)C)cc2)c1 | inconclusive: 18.4 µM [falling, partial curve, poor fit] | 
52 | CNC(=O)c1ccc(NC(=O)CC23CC4CC(CC(C4)C2)C3)cc1 |  | inactive: 1.72%
53 | COc1ccccc1/C=N\N=C(\N)c1ccccn1 | inconclusive: 7.31 µM [activator, partial curve] | 
54 | Fc1ccc(-c2cc(-c3ccccc3)c3c(n2)-c2cc(F)ccc2OC3)cc1 |  | inactive: 1.86%
55 | Cc1ccc(-c2c(C)n3c4c(=O)n(C)c(=O)n(C)c4nc3n2-c2cccc(O)c2)cc1 | inconclusive: 9.2 µM [falling, partial curve, poor fit] | 
56 | O=C(NCCCN1CCCC1=O)c1cccc(S(=O)(=O)N2CCN(c3ccccc3)CC2)c1 | inconclusive: 23.1 µM [falling, partial curve, poor fit] | 
57 | O=C(Cc1ccc(S(=O)(=O)N2CCOCC2)s1)Oc1ccc(F)cc1 | inconclusive: 5.8 µM [falling, full curve] | 
58 | Cc1cccc(OCC(=O)Nc2ccccc2N2CCCC2)c1C |  | inactive: 1.14%
59 | COc1cccc(/C=N/NC(=O)NC23CC4CC(CC(C4)C2)C3)c1O |  | inactive: -4.44%
60 | CC1(C)N=C(N)N=C(N)N1c1ccc(Oc2ccc(Cl)cc2)c(Cl)c1 | inconclusive: 2.59 µM [falling, full curve, poor fit] | 
61 | O=[N+]([O-])c1ccc(N2CCN(S(=O)(=O)c3ccccc3)CC2)cc1 | inconclusive: 20.6 µM [falling, partial curve] | 
62 | CN1OC(COC(=O)c2ccccc2)CC1c1ccccc1 (stereo not drawn) | inconclusive: 29.1 µM [activator, single point] | 
63 | Fc1ccc(-n2ncc3c(SCc4cccnc4)ncnc32)cc1 | inconclusive: 29.1 µM [falling, single point] | 
